{"source": "patent US4233403A", "about": "“Amylase assay” (E. I. Du Pont de Nemours and Company, priority 1978, dated 1980)", "tested_on": "α-amylase", "experiment": "amylase assay with nitrophenyl oligosaccharide substrate plus α-glucosidase, rate at 410 nm, standard curve", "type": "biochemical", "conditions": "two-variable optimization of substrate and α-glucosidase, pH 6.5, 37° C.", "description": "A sample of α-(4-nitrophenyl) maltotetraoside (G4 pNp) prepared in accordance with Example 1H of U.S. Patent Application Ser. No. 704,975, filed on the same day as this application, was dissolved in 66.7 mM sodium phosphate buffer, pH 6.5, to provide various substrate concentrations ranging from 2 to 8 mg/3 ml. As described in U.S. Ser. No. 704,975, this substrate sample has been purified using a Sephadex® LH-20 Chromatographic Column. α-Glucosidase of various concentrations ranging from 2.5 to 12.5 International Units per three milliliters of solution (IU/3 ml) was then added to the substrate solution and the volume of the solution was brought up to 3.0 ml. […]\nAfter the blank rate was measured at 410 nm, using a Gilford spectrophotometer, the reaction was initiated by adding 0.1 ml of an Elevated Enzyme Control Product sold by the E. I. du Pont de Nemours and Company (1150 Somogyi Units per deciliter (SU/dl) amylase) diluted 1:1 with Du Pont Enzyme Diluent. […] The total reaction rate was then measured using the Gilford spectrophotometer, and by subtracting the blank rate from the total rate, the net reaction rate was obtained.\nUsing these optimum values of G4 pNp and α-glucosidase in a reaction solution of 3 ml, the reaction rates for various amylase sample concentrations were measured and a standard curve was generated. From this curve, the sensitivity in mA/min/SU/dl was measured. […]"}
{"molecule": "O=[N+]([O-])c1ccc(O[C@H]2O[C@H](CO)[C@@H](O[C@H]3O[C@H](CO)[C@@H](O[C@H]4O[C@H](CO)[C@@H](O[C@H]5O[C@H](CO)[C@@H](O)[C@H](O)[C@H]5O)[C@H](O)[C@H]4O)[C@H](O)[C@H]3O)[C@H](O)[C@H]2O)cc1", "note": "[G4 pNp, α-(4-nitrophenyl) maltotetraoside]", "values": [{"measurement": "optimum concentration of substrate", "result": "approximately 4.0 mg/3 ml"}]}
{"molecule": "O=[N+]([O-])c1ccc(O[C@H]2O[C@H](CO)[C@@H](O[C@H]3O[C@H](CO)[C@@H](O[C@H]4O[C@H](CO)[C@@H](O[C@H]5O[C@H](CO)[C@@H](O[C@H]6O[C@H](CO)[C@@H](O)[C@H](O)[C@H]6O)[C@H](O)[C@H]5O)[C@H](O)[C@H]4O)[C@H](O)[C@H]3O)[C@H](O)[C@H]2O)cc1", "note": "[G5 pNp, α-(4-nitrophenyl) maltopentaoside]", "values": [{"measurement": "optimum concentration of substrate", "result": "> 12.0", "unit": "mg/3 ml"}]}
